# Measured values: the supplement of paper PMC12067093, “Discovery and optimisation of a covalent ligand for TRIM25 and its application to targeted protein ubiquitination” (Chemical Science, 2025)
# Protein sequences, listed by entry. Tags and fused reporters are not part of them. Lines headed by an entry give the natural chain unless they say otherwise; changes in a name come on top.
# UniProt Q86U38: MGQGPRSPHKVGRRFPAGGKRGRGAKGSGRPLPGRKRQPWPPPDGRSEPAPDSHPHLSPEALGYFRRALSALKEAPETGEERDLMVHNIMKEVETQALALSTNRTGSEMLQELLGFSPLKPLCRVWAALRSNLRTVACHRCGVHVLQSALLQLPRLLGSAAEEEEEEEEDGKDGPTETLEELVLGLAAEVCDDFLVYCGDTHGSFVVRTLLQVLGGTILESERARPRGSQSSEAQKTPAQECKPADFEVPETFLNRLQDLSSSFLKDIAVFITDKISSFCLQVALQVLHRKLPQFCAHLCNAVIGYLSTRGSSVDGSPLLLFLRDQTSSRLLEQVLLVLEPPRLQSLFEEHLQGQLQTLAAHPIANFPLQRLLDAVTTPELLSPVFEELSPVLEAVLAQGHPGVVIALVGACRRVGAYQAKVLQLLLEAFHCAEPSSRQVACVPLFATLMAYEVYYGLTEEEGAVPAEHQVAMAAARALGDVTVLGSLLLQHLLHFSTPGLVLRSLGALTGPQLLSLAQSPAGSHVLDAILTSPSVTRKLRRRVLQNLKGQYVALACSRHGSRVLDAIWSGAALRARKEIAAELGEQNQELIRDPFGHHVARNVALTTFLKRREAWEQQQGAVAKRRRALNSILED
# UniProt Q96L73: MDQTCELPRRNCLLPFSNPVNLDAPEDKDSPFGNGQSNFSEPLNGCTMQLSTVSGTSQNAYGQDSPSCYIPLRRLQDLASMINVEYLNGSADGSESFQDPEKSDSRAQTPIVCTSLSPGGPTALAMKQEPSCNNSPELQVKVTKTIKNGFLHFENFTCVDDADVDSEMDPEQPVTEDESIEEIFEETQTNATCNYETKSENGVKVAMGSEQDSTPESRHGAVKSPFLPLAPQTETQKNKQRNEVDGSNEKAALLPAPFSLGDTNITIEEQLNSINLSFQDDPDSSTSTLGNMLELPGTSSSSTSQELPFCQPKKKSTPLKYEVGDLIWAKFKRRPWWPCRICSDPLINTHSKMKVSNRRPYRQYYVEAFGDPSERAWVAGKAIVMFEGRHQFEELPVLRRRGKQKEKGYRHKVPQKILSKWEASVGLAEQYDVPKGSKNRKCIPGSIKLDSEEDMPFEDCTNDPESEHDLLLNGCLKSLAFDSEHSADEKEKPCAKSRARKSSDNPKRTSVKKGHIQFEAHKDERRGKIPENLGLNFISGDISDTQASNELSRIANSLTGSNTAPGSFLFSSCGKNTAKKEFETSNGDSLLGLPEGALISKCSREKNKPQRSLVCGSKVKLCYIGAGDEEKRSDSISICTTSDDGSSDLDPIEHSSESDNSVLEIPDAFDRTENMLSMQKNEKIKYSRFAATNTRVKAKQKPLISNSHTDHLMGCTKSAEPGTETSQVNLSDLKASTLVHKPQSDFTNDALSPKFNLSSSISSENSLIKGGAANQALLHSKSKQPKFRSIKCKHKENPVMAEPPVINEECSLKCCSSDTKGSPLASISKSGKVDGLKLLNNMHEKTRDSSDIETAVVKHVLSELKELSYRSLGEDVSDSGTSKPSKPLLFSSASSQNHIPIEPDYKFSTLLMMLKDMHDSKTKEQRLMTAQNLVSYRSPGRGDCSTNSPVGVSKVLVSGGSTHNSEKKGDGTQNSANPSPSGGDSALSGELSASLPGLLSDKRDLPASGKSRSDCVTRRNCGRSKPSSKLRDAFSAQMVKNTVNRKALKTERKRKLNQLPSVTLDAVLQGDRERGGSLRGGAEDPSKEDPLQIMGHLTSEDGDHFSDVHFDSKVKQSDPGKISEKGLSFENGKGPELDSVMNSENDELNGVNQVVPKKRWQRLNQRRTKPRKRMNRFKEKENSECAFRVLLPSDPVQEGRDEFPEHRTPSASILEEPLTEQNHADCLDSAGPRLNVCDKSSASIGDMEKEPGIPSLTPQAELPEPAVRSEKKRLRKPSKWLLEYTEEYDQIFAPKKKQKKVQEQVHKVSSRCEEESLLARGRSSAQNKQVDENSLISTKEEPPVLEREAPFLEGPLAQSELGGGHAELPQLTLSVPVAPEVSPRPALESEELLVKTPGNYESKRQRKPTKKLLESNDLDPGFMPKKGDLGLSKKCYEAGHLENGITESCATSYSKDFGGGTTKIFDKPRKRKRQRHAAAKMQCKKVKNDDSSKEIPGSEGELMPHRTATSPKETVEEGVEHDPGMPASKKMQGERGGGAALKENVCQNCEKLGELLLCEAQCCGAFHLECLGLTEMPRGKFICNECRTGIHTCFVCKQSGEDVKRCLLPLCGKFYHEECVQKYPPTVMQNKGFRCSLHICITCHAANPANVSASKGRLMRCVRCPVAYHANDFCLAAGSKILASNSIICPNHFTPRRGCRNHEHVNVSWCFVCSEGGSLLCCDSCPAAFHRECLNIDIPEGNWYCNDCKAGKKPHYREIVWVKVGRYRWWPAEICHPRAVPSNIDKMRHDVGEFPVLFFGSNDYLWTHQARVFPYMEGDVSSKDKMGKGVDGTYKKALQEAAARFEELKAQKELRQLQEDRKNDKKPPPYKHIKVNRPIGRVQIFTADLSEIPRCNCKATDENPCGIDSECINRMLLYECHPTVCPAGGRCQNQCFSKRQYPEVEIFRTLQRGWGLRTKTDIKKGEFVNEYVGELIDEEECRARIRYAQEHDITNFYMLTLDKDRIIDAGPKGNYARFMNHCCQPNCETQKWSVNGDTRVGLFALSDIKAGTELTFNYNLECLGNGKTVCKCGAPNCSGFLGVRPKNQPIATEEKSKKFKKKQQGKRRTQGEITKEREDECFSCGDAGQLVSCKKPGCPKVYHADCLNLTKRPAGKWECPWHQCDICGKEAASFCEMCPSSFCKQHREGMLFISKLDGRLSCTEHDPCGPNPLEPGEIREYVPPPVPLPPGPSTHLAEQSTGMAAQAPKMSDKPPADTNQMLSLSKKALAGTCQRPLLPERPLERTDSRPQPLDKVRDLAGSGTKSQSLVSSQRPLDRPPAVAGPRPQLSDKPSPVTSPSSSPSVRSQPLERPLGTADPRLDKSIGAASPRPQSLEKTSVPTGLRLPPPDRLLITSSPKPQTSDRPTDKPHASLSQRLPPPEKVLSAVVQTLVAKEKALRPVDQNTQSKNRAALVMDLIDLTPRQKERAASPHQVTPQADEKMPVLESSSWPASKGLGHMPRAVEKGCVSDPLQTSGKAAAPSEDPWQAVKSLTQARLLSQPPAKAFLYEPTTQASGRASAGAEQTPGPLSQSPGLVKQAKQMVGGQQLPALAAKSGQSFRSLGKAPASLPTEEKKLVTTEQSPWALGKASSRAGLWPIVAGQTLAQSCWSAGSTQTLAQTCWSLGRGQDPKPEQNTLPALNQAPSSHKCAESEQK
# UniProt P55786: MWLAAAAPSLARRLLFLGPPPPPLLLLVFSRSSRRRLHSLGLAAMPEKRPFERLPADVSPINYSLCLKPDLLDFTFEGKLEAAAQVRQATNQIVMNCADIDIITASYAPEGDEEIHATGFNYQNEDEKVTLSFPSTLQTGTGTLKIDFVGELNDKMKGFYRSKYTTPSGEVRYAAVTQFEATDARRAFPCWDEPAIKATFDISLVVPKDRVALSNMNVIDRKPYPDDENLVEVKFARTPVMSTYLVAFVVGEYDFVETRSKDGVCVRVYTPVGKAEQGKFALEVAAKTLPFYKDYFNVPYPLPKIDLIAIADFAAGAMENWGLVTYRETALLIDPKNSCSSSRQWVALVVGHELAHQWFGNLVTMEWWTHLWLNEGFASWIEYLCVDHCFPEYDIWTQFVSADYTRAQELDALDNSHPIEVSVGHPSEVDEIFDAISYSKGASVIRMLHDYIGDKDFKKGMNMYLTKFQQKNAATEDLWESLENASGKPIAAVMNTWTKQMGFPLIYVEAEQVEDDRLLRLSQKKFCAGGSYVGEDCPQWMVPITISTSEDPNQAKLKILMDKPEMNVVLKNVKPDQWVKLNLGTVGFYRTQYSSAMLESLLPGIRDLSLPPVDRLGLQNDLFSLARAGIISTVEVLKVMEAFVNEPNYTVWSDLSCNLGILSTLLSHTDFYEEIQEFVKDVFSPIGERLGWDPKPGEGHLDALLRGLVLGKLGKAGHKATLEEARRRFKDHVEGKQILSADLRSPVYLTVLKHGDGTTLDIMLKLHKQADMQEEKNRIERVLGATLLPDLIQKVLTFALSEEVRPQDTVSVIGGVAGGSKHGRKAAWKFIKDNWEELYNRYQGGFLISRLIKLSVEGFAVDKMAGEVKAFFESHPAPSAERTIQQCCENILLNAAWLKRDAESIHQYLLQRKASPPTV
# UniProt O96028: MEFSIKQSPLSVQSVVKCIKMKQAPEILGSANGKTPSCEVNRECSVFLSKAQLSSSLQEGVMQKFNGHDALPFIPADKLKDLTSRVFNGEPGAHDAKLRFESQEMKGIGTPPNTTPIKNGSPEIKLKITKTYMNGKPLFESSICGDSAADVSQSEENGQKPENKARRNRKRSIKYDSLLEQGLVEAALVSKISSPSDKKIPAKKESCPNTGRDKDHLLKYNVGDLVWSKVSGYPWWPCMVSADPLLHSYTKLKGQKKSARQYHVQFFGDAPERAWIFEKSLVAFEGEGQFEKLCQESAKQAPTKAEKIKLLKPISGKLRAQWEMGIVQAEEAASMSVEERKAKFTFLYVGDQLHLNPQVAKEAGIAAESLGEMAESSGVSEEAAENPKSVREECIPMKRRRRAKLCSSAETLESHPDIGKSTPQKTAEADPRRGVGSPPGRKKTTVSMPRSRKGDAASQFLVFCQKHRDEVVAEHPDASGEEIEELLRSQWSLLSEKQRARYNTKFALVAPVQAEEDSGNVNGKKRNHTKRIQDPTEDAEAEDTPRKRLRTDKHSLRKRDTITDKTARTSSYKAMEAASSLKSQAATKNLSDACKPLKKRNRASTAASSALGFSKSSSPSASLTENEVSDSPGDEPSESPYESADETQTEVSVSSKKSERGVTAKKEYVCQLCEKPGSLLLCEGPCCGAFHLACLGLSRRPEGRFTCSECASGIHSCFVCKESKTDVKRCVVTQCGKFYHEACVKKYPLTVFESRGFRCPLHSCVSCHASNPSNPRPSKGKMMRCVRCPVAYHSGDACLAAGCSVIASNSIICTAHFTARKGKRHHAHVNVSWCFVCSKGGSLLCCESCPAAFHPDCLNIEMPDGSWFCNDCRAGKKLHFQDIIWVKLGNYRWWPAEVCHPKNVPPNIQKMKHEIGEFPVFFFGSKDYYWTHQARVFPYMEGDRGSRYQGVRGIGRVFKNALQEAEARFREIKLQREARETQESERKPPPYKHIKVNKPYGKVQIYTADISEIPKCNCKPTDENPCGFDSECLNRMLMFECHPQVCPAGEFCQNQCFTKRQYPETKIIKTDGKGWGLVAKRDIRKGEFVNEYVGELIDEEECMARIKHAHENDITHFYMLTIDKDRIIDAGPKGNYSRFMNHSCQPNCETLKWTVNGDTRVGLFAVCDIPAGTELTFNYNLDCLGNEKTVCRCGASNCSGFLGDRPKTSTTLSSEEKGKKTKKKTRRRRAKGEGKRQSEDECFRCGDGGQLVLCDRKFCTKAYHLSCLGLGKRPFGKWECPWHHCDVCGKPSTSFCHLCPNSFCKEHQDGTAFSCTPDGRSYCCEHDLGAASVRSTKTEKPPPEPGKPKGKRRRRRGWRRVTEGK
# UniProt Q9UK39: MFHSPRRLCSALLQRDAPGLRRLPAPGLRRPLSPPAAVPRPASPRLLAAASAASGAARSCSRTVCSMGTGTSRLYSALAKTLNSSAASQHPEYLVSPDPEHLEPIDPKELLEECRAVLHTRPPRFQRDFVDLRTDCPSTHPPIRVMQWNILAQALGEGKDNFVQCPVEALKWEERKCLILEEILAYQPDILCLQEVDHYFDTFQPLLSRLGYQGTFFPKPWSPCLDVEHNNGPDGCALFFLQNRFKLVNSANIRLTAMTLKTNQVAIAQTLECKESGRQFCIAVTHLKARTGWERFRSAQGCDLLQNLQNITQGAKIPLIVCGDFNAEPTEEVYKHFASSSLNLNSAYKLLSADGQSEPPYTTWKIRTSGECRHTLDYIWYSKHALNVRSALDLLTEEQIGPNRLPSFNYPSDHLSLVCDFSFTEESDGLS
# UniProt O60551: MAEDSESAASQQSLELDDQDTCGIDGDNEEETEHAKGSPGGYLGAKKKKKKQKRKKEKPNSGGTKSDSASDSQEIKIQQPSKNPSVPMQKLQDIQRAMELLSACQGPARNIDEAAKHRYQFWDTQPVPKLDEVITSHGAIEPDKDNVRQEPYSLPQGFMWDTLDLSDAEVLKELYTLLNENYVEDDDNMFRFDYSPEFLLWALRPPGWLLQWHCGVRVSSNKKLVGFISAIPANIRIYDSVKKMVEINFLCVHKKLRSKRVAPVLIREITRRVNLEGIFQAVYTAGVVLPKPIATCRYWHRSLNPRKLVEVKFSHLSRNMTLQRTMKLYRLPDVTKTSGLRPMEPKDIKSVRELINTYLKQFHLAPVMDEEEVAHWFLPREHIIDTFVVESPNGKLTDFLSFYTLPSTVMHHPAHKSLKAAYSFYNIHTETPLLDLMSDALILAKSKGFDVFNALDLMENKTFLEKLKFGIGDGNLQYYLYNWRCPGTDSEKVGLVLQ
# The list shows a part of the results.
# Compound: CC1Cc2ccccc2N1C(=O)C1CCCN(C1)C(=O)CCl (mixture of isomers) [TRIM25 ligand 11 (diastereomer mixture)]
# Test: probe-labelled cysteine peptide fold change vs DMSO (competition) (log2 fold change); higher = less target engagement (more negative = stronger competition)
# Conditions: THP-1, incubation time: 4 h
# 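Note: competitive chemoproteomic profiling in live THP-1 cells with an iodoacetamide desthiobiotin (IA-DTB) probe, comparing probe-labelled peptide intensities in compound-treated cells against DMSO-treated controls.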
target,measurement,setting,value
NSUN2_Q08J23_221_RCYLLVHQAK (UniProt Q08J23),probe-labelled cysteine peptide fold change,10 µM,0.0106
same,probe-labelled cysteine peptide fold change,50 µM,0.24
NOP9_Q86U38_123_TGSEMLQELLGFSPLKPLCR (UniProt Q86U38),probe-labelled cysteine peptide fold change,10 µM,-0.17
same,probe-labelled cysteine peptide fold change,50 µM,-0.294
NSD1_Q96L73_715_QKPLISNSHTDHLMGCTK (UniProt Q96L73),probe-labelled cysteine peptide fold change,10 µM,0.0149
same,probe-labelled cysteine peptide fold change,50 µM,-0.355
NPEPPS_P55786_887_TIQQCCENILLNAAWLK (UniProt P55786),probe-labelled cysteine peptide fold change,10 µM,-0.024
same,probe-labelled cysteine peptide fold change,50 µM,-0.179
NRDE2_Q9H7Z3_608_QTEEDCEDPER (UniProt Q9H7Z3),probe-labelled cysteine peptide fold change,10 µM,0.125
same,probe-labelled cysteine peptide fold change,50 µM,-0.113
NSD2_O96028_1245_CGDGGQLVLCDR (UniProt O96028),probe-labelled cysteine peptide fold change,10 µM,-0.171
same,probe-labelled cysteine peptide fold change,50 µM,-0.261
NOCT_Q9UK39_322_IPLIVCGDFNAEPTEEVYK (UniProt Q9UK39),probe-labelled cysteine peptide fold change,10 µM,-0.203
same,probe-labelled cysteine peptide fold change,50 µM,-0.0146
NLRP7_Q8WX94_540_ELEATFGCR (UniProt Q8WX94),probe-labelled cysteine peptide fold change,10 µM,-0.0769
same,probe-labelled cysteine peptide fold change,50 µM,-0.083
NSD3_Q9BZ95_729_HFHLECLGLASLPDSK (UniProt Q9BZ95),probe-labelled cysteine peptide fold change,10 µM,0.0205
same,probe-labelled cysteine peptide fold change,50 µM,-0.104
NT5C3B_Q969T7_73_IISEECR (UniProt Q969T7),probe-labelled cysteine peptide fold change,10 µM,0.19
same,probe-labelled cysteine peptide fold change,50 µM,0.152
NLRX1_Q86UT6_713_CTVVAAVLGSGR (UniProt Q86UT6),probe-labelled cysteine peptide fold change,10 µM,-0.136
same,probe-labelled cysteine peptide fold change,50 µM,0.223
NOL11_Q9H8H0_286_ECLSVWNIK (UniProt Q9H8H0),probe-labelled cysteine peptide fold change,10 µM,0.0424
same,probe-labelled cysteine peptide fold change,50 µM,0.13
NSUN4_Q96CB9_258_VLVDVPCTTDR (UniProt Q96CB9),probe-labelled cysteine peptide fold change,10 µM,-0.234
same,probe-labelled cysteine peptide fold change,50 µM,-0.0205
NSMCE2_Q96MF7_185_VCGHTYEEDAIVR (UniProt Q96MF7),probe-labelled cysteine peptide fold change,10 µM,-0.0631
same,probe-labelled cysteine peptide fold change,50 µM,0.0833
NRDC_O43847_674_AFDCPETEYPVK (UniProt O43847),probe-labelled cysteine peptide fold change,10 µM,0.103
same,probe-labelled cysteine peptide fold change,50 µM,0.0105
NOTCH2_Q04721_1966_LAVEGMVAELINCQADVNAVDDHGK (UniProt Q04721),probe-labelled cysteine peptide fold change,10 µM,0.268
same,probe-labelled cysteine peptide fold change,50 µM,0.124
NOL9_Q5SY16_648_TVNCLLVGAIAIPHCVLK (UniProt Q5SY16),probe-labelled cysteine peptide fold change,10 µM,-0.129
same,probe-labelled cysteine peptide fold change,50 µM,-0.0258
NMT2_O60551_485_CPGTDSEK (UniProt O60551),probe-labelled cysteine peptide fold change,10 µM,-0.0282
same,probe-labelled cysteine peptide fold change,50 µM,-0.0411
NSUN5_Q96P11_278+279_AGVSCCELAEEDFLAVSPSDPR (UniProt Q96P11),probe-labelled cysteine peptide fold change,10 µM,0.234
same,probe-labelled cysteine peptide fold change,50 µM,-0.117
NOCT_Q9UK39_165_DNFVQCPVEALK (UniProt Q9UK39),probe-labelled cysteine peptide fold change,10 µM,-0.0764
same,probe-labelled cysteine peptide fold change,50 µM,-0.0473
NPM3_O75607_79_DECNVVEVVAR (UniProt O75607),probe-labelled cysteine peptide fold change,10 µM,0.188
same,probe-labelled cysteine peptide fold change,50 µM,0.236
NOP9_Q86U38_242_TPAQECKPADFEVPETFLNR (UniProt Q86U38),probe-labelled cysteine peptide fold change,10 µM,0.0762
same,probe-labelled cysteine peptide fold change,50 µM,0.0449
NLRX1_Q86UT6_481_FFLAPCVEPGR (UniProt Q86UT6),probe-labelled cysteine peptide fold change,10 µM,0.302
same,probe-labelled cysteine peptide fold change,50 µM,0.485
NOL8_Q76FK4_517_SDGPETTTQCK (UniProt Q76FK4),probe-labelled cysteine peptide fold change,10 µM,-0.0163
same,probe-labelled cysteine peptide fold change,50 µM,-0.0828
NOTCH1_P46531_922_NCETDIDDCRPNPCHNGGSCTDGINTAFCDCLPGFR (UniProt P46531),probe-labelled cysteine peptide fold change,10 µM,-0.00672
same,probe-labelled cysteine peptide fold change,50 µM,-0.0992
NSDHL_Q15738_104_GVNTVFHCASPPPSSNNK (UniProt Q15738),probe-labelled cysteine peptide fold change,10 µM,-0.0444
same,probe-labelled cysteine peptide fold change,50 µM,-0.0494
NSD2_O96028_1198_CGASNCSGFLGDRPK (UniProt O96028),probe-labelled cysteine peptide fold change,10 µM,0.00758
same,probe-labelled cysteine peptide fold change,50 µM,-0.0116
NOP9_Q86U38_141_CGVHVLQSALLQLPR (UniProt Q86U38),probe-labelled cysteine peptide fold change,10 µM,0.0871
same,probe-labelled cysteine peptide fold change,50 µM,0.129
NMT1_P30419_294_VHLEGIFQAVYTAGVVLPKPVGTCR (UniProt P30419),probe-labelled cysteine peptide fold change,10 µM,-0.136
same,probe-labelled cysteine peptide fold change,50 µM,0.128
NOTCH1_P46531_1225_GTQGVHCEINVDDCNPPVDPVSR (UniProt P46531),probe-labelled cysteine peptide fold change,10 µM,0.0133
same,probe-labelled cysteine peptide fold change,50 µM,-0.21
NPEPL1_Q8NDH3_284_DCGGAAAVLGAFR (UniProt Q8NDH3),probe-labelled cysteine peptide fold change,10 µM,-0.201
same,probe-labelled cysteine peptide fold change,50 µM,0.0255
NME1_P15531_145_EIGLWFHPEELVDYTSCAQNWIYE (UniProt P15531),probe-labelled cysteine peptide fold change,10 µM,0.0437
same,probe-labelled cysteine peptide fold change,50 µM,-0.154
NSD1_Q96L73_1312_CEEESLLAR (UniProt Q96L73),probe-labelled cysteine peptide fold change,10 µM,-0.085
same,probe-labelled cysteine peptide fold change,50 µM,-0.0853
NOM1_Q5C9Z4_65_LAVEEFVHATSEGEAPGGCEGR (UniProt Q5C9Z4),probe-labelled cysteine peptide fold change,10 µM,-0.014
same,probe-labelled cysteine peptide fold change,50 µM,-0.344
NKRF_O15226_242_LLTDGYACEVR (UniProt O15226),probe-labelled cysteine peptide fold change,10 µM,-0.0173
same,probe-labelled cysteine peptide fold change,50 µM,0.14
NLRX1_Q86UT6_735_HALDEVNLASCQLDPAGLR (UniProt Q86UT6),probe-labelled cysteine peptide fold change,10 µM,0.0608
same,probe-labelled cysteine peptide fold change,50 µM,-0.142
NPC2_P61916_42+47_EVNVSPCPTQPCQLSK (UniProt P61916),probe-labelled cysteine peptide fold change,10 µM,0.13
same,probe-labelled cysteine peptide fold change,50 µM,0.0977
NSUN2_Q08J23_502_DGVCGPPPSK (UniProt Q08J23),probe-labelled cysteine peptide fold change,10 µM,0.0572
same,probe-labelled cysteine peptide fold change,50 µM,0.0322
NLN_Q9BYT8_507_TYFHEFGHVMHQICAQTDFAR (UniProt Q9BYT8),probe-labelled cysteine peptide fold change,10 µM,-0.0323
same,probe-labelled cysteine peptide fold change,50 µM,0.0522

# Some of the entries above in a different format:
target | measurement | setting | value
NOTCH2_Q04721_1966_LAVEGMVAELINCQADVNAVDDHGK (UniProt Q04721) | probe-labelled cysteine peptide fold change | 10 µM | 0.268
NMT2_O60551_485_CPGTDSEK (UniProt O60551) | probe-labelled cysteine peptide fold change | 10 µM | -0.0282

# Part of the list above, as tab-separated lines:
target	measurement	setting	value
NPEPPS_P55786_887_TIQQCCENILLNAAWLK (UniProt P55786)	probe-labelled cysteine peptide fold change	10 µM	-0.024
same	probe-labelled cysteine peptide fold change	50 µM	-0.179

# A different layout for part of the listing above:
target | measurement | setting | value
NSD1_Q96L73_1312_CEEESLLAR (UniProt Q96L73) | probe-labelled cysteine peptide fold change | 50 µM | -0.0853
NOM1_Q5C9Z4_65_LAVEEFVHATSEGEAPGGCEGR (UniProt Q5C9Z4) | probe-labelled cysteine peptide fold change | 10 µM | -0.014
